Source: the M2OR odorant receptor database
The list shows a part of the results, in another mix than the full data. Calls are pooled over several reports, among them a noisy single-well screen. Some of the results follow.

The chains behind the UniProt entries cited, without tags or fusion partners. Where a name states a change or a piece, a line headed by the entry shows the natural chain unless it says otherwise.
UniProt A6NDL8: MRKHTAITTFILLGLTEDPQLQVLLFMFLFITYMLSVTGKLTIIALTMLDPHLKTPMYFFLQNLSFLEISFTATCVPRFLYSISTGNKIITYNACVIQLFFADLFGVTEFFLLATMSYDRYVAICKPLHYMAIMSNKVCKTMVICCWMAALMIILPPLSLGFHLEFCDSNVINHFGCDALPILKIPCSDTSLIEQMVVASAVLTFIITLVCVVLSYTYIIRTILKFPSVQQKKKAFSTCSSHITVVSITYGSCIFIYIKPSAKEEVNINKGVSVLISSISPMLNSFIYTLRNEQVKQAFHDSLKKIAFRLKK
UniProt A6NIJ9: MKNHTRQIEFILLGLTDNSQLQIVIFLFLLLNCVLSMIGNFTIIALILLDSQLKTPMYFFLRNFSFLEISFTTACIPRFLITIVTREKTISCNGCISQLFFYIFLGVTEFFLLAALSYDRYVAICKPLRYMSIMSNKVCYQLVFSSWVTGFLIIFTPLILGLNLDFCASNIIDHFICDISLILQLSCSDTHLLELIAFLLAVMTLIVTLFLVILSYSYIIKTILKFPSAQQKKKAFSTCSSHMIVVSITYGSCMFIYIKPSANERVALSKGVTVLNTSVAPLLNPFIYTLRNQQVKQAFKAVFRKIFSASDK

How the values were obtained:
Settings in all cases: stereoisomer not certain
OR6B1 = tested on: T1, OR6B1
T1 sequence (whole entry): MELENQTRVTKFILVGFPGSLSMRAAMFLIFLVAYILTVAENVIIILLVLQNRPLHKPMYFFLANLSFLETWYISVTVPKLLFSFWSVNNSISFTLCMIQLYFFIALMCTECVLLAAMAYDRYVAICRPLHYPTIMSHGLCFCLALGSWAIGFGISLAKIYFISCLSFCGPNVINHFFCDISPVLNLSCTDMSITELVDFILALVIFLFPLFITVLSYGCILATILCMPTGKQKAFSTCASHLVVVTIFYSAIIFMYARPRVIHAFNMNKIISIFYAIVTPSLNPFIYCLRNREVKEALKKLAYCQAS
Procedure, shortened: (§1)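 Assay methods differ from source to source, frequently being transient luciferase assays in mammalian cell lines. For each receptor–molecule pair, the label responsive (active) applies when the original authors judged the measured signal statistically different from baseline, and non-responsive (inactive) applies otherwise.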

OR6B2 = tested on: T2, OR6B2
T2 sequence (whole entry): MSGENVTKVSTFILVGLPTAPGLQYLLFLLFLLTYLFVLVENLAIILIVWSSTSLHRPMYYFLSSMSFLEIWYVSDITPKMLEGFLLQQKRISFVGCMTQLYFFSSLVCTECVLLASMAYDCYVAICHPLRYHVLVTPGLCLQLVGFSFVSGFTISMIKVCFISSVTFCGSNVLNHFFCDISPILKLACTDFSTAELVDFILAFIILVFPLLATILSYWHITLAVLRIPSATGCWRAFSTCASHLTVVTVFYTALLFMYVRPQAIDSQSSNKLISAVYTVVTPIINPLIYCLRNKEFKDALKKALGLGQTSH
Procedure, shortened: as §1

OR6B3 = tested on: T3, OR6B3
T3 sequence (whole entry): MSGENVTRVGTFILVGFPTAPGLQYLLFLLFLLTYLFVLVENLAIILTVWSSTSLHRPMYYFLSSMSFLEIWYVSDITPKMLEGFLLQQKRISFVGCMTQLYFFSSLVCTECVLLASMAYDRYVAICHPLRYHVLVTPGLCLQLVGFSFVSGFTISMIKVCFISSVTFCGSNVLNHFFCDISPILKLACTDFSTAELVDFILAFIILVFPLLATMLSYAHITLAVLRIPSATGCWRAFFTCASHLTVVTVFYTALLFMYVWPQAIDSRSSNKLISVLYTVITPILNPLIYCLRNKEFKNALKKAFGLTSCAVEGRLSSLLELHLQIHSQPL
Procedure, shortened: as §1

OR6C1 = tested on: T4, OR6C1
T4 sequence (whole entry): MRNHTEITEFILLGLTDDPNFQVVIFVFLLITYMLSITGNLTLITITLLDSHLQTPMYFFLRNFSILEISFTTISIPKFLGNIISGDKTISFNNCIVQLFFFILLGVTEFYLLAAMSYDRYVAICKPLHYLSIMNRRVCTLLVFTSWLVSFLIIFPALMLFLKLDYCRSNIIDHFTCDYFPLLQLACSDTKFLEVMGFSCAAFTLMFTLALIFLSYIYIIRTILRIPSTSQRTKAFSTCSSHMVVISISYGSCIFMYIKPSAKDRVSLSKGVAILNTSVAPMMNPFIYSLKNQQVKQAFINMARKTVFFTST
Procedure, shortened: as §1

OR6C2 (Homo sapiens) = target: T5, OR6C2 (Homo sapiens) (UniProt Q9NZP2)
T5 sequence (whole entry): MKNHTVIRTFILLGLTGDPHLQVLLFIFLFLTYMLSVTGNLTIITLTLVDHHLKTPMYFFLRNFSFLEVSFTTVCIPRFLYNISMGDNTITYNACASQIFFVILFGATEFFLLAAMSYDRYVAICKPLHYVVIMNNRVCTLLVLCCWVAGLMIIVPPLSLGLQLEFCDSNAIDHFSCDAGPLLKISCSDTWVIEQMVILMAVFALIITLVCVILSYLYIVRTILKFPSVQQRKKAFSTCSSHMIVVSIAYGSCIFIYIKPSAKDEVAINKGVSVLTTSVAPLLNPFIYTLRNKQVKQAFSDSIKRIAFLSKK
Procedure, shortened: as §1

OR6C3 (Homo sapiens) = target: T6, OR6C3 (Homo sapiens) (UniProt Q9NZP0)
T6 sequence (whole entry): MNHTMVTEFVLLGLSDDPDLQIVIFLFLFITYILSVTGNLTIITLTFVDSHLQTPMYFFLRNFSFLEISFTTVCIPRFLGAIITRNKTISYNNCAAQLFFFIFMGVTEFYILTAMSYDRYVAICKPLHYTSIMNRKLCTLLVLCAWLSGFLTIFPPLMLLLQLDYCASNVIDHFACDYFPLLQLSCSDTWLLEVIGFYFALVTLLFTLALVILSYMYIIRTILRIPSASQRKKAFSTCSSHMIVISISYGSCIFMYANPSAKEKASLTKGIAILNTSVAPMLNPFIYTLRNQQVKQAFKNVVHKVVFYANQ
Procedure, shortened: as §1

OR6C4 = tested on: T7, OR6C4
T7 sequence (whole entry): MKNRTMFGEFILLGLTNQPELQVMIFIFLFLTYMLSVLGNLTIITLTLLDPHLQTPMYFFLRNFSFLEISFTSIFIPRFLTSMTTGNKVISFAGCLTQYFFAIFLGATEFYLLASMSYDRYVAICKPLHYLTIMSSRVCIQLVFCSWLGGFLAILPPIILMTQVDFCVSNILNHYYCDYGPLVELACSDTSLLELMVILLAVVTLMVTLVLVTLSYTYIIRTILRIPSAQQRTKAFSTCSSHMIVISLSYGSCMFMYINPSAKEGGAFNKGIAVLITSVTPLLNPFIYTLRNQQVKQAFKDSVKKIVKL
Procedure, shortened: as §1

OR6C6 (Homo sapiens) = target: T8, OR6C6 (Homo sapiens) (UniProt A6NF89)
T8 sequence (whole entry): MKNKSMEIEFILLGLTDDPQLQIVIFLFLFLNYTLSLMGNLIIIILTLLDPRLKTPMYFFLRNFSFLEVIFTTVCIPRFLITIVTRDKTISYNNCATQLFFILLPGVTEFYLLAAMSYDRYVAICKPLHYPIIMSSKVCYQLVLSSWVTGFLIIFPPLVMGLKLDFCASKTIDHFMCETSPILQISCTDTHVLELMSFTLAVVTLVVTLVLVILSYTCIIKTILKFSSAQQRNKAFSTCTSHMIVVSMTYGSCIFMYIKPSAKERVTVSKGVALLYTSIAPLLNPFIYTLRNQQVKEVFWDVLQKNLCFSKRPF
Procedure, shortened: as §1

OR6C65 (Homo sapiens) = target: T9, OR6C65 (Homo sapiens) (UniProt A6NJZ3)
T9 sequence (whole entry): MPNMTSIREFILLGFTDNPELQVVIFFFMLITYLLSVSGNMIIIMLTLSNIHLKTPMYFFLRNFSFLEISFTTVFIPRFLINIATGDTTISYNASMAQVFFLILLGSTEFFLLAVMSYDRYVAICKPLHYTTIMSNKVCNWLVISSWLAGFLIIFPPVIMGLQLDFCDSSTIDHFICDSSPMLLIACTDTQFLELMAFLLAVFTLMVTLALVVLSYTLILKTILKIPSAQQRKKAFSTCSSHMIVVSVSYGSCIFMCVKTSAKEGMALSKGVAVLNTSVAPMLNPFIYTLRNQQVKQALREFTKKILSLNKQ
Procedure, shortened: as §1

OR6C74 (Homo sapiens) = target: T10, OR6C74 (Homo sapiens) (UniProt A6NCV1)
T10 sequence (whole entry): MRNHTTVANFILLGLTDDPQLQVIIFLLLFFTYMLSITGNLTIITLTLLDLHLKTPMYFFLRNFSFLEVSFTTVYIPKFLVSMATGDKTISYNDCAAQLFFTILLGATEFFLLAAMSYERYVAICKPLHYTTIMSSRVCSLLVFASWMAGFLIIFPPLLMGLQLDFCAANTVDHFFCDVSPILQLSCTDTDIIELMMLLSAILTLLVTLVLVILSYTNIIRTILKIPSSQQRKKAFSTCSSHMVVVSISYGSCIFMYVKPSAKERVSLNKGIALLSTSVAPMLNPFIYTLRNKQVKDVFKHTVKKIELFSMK
Procedure, shortened: as §1

OR6C75 (Homo sapiens) = target: T11, OR6C75 (Homo sapiens) (UniProt A6NL08)
T11 sequence (whole entry): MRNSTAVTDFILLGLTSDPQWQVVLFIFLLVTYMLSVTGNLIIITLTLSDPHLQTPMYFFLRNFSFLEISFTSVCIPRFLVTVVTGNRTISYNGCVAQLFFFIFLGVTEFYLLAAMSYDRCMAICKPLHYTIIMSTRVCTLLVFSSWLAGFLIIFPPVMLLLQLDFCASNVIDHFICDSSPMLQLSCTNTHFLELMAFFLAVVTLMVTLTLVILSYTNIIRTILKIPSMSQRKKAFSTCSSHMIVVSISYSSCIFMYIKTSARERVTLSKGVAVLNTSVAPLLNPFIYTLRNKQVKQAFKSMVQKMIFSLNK
Procedure, shortened: as §1

OR6C76 (Homo sapiens) = target: T12, OR6C76 (Homo sapiens) (UniProt A6NM76)
T12 sequence (whole entry): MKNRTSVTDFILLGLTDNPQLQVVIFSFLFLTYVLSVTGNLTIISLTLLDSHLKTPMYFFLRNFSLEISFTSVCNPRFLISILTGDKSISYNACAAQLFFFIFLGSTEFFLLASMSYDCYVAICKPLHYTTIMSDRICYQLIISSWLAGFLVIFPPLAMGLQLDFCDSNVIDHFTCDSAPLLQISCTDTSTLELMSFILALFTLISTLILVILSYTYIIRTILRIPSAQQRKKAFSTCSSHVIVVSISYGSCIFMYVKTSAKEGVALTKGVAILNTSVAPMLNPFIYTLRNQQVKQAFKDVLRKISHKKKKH
Procedure, shortened: as §1

OR6F1 (Homo sapiens) = target: T13, OR6F1 (Homo sapiens) (UniProt Q8NGZ6)
T13 sequence (whole entry): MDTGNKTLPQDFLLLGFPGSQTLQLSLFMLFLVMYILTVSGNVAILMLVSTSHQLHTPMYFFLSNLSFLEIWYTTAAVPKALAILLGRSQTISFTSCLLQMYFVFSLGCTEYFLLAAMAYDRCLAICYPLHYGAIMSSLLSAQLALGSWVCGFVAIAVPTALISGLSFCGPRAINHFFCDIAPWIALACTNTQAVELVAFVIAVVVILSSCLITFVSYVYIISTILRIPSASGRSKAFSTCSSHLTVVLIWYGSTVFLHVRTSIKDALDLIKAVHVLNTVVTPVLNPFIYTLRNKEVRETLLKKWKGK
Procedure, shortened: as §1

OR6B1 (Homo sapiens) = OR6B1 (Homo sapiens) (UniProt O95007)
Procedure, shortened: as §1

OR6B2 (Homo sapiens) = OR6B2 (Homo sapiens) (UniProt Q6IFH4)
Procedure, shortened: as §1

OR6B3 (Homo sapiens) = OR6B3 (Homo sapiens) (UniProt Q8NGW1)
Procedure, shortened: as §1

OR6C1 (Homo sapiens) = OR6C1 (Homo sapiens) (UniProt Q96RD1)
Procedure, shortened: as §1

OR6C4 (Homo sapiens) = OR6C4 (Homo sapiens) (UniProt Q8NGE1)
Procedure, shortened: as §1

OR6C68 (Homo sapiens) = OR6C68 (Homo sapiens) (UniProt A6NDL8)
Procedure, shortened: as §1

OR6C70 (Homo sapiens) = OR6C70 (Homo sapiens) (UniProt A6NIJ9)
Procedure, shortened: as §1

Measured: odorant receptor agonist call

COC(=O)c1ccccc1
active: OR6F1 (Homo sapiens)
not listed: OR6B1 (Homo sapiens) | OR6B2 (Homo sapiens) | OR6B3 (Homo sapiens) | OR6C1 (Homo sapiens) | OR6C4 (Homo sapiens) | OR6C68 (Homo sapiens) | OR6C70 (Homo sapiens)
inactive: all other assays above

CC(C)CCC(=O)O
not listed: OR6B1 (Homo sapiens) | OR6B2 (Homo sapiens) | OR6B3 (Homo sapiens) | OR6C1 (Homo sapiens) | OR6C4 (Homo sapiens) | OR6C68 (Homo sapiens) | OR6C70 (Homo sapiens)
inactive: all other assays above

CCCC(=O)O
not listed: OR6B1 (Homo sapiens) | OR6B2 (Homo sapiens) | OR6B3 (Homo sapiens) | OR6C1 (Homo sapiens) | OR6C4 (Homo sapiens) | OR6C68 (Homo sapiens) | OR6C70 (Homo sapiens)
inactive: all other assays above

CCCCO
not listed: OR6B1 (Homo sapiens) | OR6B2 (Homo sapiens) | OR6B3 (Homo sapiens) | OR6C1 (Homo sapiens) | OR6C4 (Homo sapiens) | OR6C68 (Homo sapiens) | OR6C70 (Homo sapiens)
inactive: all other assays above

CC(C)=CCCC(C)=CC=O
not listed: OR6B1 (Homo sapiens) | OR6B2 (Homo sapiens) | OR6B3 (Homo sapiens) | OR6C1 (Homo sapiens) | OR6C4 (Homo sapiens) | OR6C68 (Homo sapiens) | OR6C70 (Homo sapiens)
inactive: all other assays above

COc1cc(C=O)ccc1O
not listed: OR6B1 (Homo sapiens) | OR6B2 (Homo sapiens) | OR6B3 (Homo sapiens) | OR6C1 (Homo sapiens) | OR6C4 (Homo sapiens) | OR6C68 (Homo sapiens) | OR6C70 (Homo sapiens)
inactive: all other assays above

CC(=O)OC(C)(C)C1CC=C(C)CC1 (stereo not drawn)
not listed: OR6B1 (Homo sapiens) | OR6B2 (Homo sapiens) | OR6B3 (Homo sapiens) | OR6C1 (Homo sapiens) | OR6C4 (Homo sapiens) | OR6C68 (Homo sapiens) | OR6C70 (Homo sapiens)
inactive: all other assays above

CC12C=CCC1C1CCC3CC(=O)CCC3(C)C1CC2 (stereo not drawn)
active: OR6B1
inactive: all other assays above

CCC1(O)C2(C)CCC(C2)C1(C)C (stereo not drawn)
not listed: OR6B1 (Homo sapiens) | OR6B2 (Homo sapiens) | OR6B3 (Homo sapiens) | OR6C1 (Homo sapiens) | OR6C4 (Homo sapiens) | OR6C68 (Homo sapiens) | OR6C70 (Homo sapiens)
inactive: all other assays above

CC(C)(C)c1ccc(CCC=O)cc1
not listed: OR6B1 (Homo sapiens) | OR6B2 (Homo sapiens) | OR6B3 (Homo sapiens) | OR6C1 (Homo sapiens) | OR6C4 (Homo sapiens) | OR6C68 (Homo sapiens) | OR6C70 (Homo sapiens)
inactive: all other assays above

CCCCCC(=O)O
not listed: OR6B1 (Homo sapiens) | OR6B2 (Homo sapiens) | OR6B3 (Homo sapiens) | OR6C1 (Homo sapiens) | OR6C4 (Homo sapiens) | OR6C68 (Homo sapiens) | OR6C70 (Homo sapiens)
inactive: all other assays above

CC(C)C=O
not listed: OR6B1 (Homo sapiens) | OR6B2 (Homo sapiens) | OR6B3 (Homo sapiens) | OR6C1 (Homo sapiens) | OR6C4 (Homo sapiens) | OR6C68 (Homo sapiens) | OR6C70 (Homo sapiens)
inactive: all other assays above
